Laboratory results reported in PubChem BioAssay (NCATS).
Inconclusive means that the source gave no clear call. Such entries were picked first, then a sample of the others. Potencies of inconclusive entries are doubtful fits and often do not repeat. Active and inactive are the calls of the source. Calls follow the shape of the dose curve; as a rule, active = well fitted cell-killing curve with a large enough effect; inconclusive = small, poorly fitted or top-dose-only effect, or effect the other way; inactive = no such curve, though single readings can be large or run the other way.

Experiment: Quantitative High-Throughput drug screen in 47 multiple myeloma cell lines against the NCATS MIPE library collection: Karpas417_ECACC cell viability assay (AID 1918961)
Conditions: Karpas417 myeloma viability, CellTiter-Glo ATP luminescence, 48 h; viability (% of DMSO): at 45.8 µM (top of the series)
Source text: PI: Beverly A. Mock Ph.D.
Laboratory of Cancer Biology and Genetics,
Center for Cancer Research, National Cancer Institute,
National Institute of Health, Bethesda, Maryland
Drug resistance and disease progression are common in multiple myeloma (MM) patients, underscoring the need for new therapeutic combinations. […] We hypothesized that effective combinations would reduce MYC expression and enhance p16 activity. […] These preclinical data identify potentially useful drug combinations for evaluation in drug-resistant MM and reveal potential mechanisms of combined drug sensitivity.
Described herein is the primary MIPE qHTS used to cherrypick compounds. Validated compounds were then further tested for potential synergistic activiy.
[1] Peat TJ, Gaikwad SM, Dubois W, Gyabaah-Kessie N, Zhang S, Gorjifard S, Phyo Z, Andres M, Hughitt VK, Simpson RM, Miller MA, Girvin AT, Taylor A, Williams D, D'Antonio N, Zhang Y, Rajagopalan A, Flietner E, Wilson K, Zhang X, Shinn P, Klumpp-Thomas C, McKnight C, Itkin Z, Chen L, Kazandijian D, Zhang J, Michalowski AM, Simmons JK, Keats J, Thomas CJ, Mock BA. Drug combinations identified by high-throughput screening promote cell cycle transition and upregulate Smad pathways in myeloma. Cancer Lett. 2023 Aug 1;568:216284. doi: 10.1016/j.canlet.2023.216284. Epub 2023 Jun 24. PMID: 37356470; PMCID: PMC10408729.
SEQUENCE No. (e.g., 1, 2, 3, etc.); […] (e.g., Cells, Incubation, Reagent, etc.); VALUE and DESCRIPTION.
1; Cells; 5 uL; white, solid bottom 1536-well Greiner assay plate.
2; Compounds; 23 nL; Kalypsis pin tool (Wako USA) equipped with a 1536-well pin head to transfer to the assay plates.
3; Incubation; 48 hours; 37C incubation.
4; Reagent;5uL; CellTiter Glo (Promega).
5; Detector; 425V; Luminescence; Viewlux PerkinElmer.
NOTES (numbers refer to Sequence numbers above)
1. The cell-based screening methods employed in this study were like those previously published. Briefly, the corresponding myeloma cell lines were screened in 1,536-well plates with 500 cells, 5-uL per well for inhibition of cell viability (assessed by measuring ATP levels with CellTiterGlo).
2. NCATS MIPE 4.0 library of approved and investigational drugs were added using the Kalypsis pin tool. Wells treated with DMSO only for 100% viability and media only wells for 0% viability were used as controls.
3. The assay plates were covered and incubated for 48 hours in a 37C, 5% CO2 incubator with controlled humidity.
4. After 48 hours, CellTilter-GloTM luminescent substrate mix (Promega) reagent was added to the assay plate and plates we incubated for 5 min at room temperature.
5. Signal was measured as median relative luminescence units on a ViewLux (PerkinElmer) multiplate reader.
[1] Heske CM, Davis MI, Baumgart JT, Wilson K, Gormally MV, Chen L, Zhang X, Ceribelli M, Duveau DY, Guha R, Ferrer M, Arnaldez FI, Ji J, Tran HL, Zhang Y, Mendoza A, Helman LJ, Thomas CJ. Matrix Screen Identifies Synergistic Combination of PARP Inhibitors and Nicotinamide Phosphoribosyltransferase (NAMPT) Inhibitors in Ewing Sarcoma. Clin Cancer Res. 2017 Dec 1;23(23):7301-7311. doi: 10.1158/1078-0432.CCR-17-1121. Epub 2017 Sep 12. PMID: 28899971; PMCID: PMC6636827.
Potency is read from the fitted curve at half-maximal effect.

Compound	viability (% of DMSO)	Potency
O=C(NCCCCN1CCOCC1)c1cc2ccccc2o1	active: 159%	
CCCCCCCc1ccc(CCc2cccc(O)c2C(=O)O)cc1		inconclusive: 0.296 µM [rising, full curve, poor fit]
Nc1nccc(-c2ccc3noc(-c4ccc(Cl)cc4)c3c2)n1		inconclusive: 10.5 µM [rising, partial curve, poor fit]
Nc1ccn(C2CO[C@H](CO)O2)c(=O)n1 (stereo not given in full)		inconclusive: 0.0059 µM [rising, full curve, poor fit]
CC(C)(O)CCc1ccc(OCc2cc(-c3cccc(OC(F)F)c3)c3ncccc3c2)cc1		inconclusive: 0.003 µM [cytotoxic, full curve, poor fit]
CN1CCN(c2ncc(-c3cc(Cl)cc(Cl)c3Cl)c(N)n2)CC1		inconclusive: 0.187 µM [rising, full curve, poor fit]
CN(C)c1ccccc1CN1CCCN(Cc2ccccc2N(C)C)C1c1ccncc1		inconclusive: 26.4 µM [cytotoxic, partial curve, poor fit]
CCNC(=O)[C@H]1O[C@@H](n2cnc3c(N)nc(NCCc4ccc(CCC(=O)O)cc4)nc32)[C@H](O)[C@H]1O		active: 0.0296 µM
CCC(c1ccc(O)cc1)C(CC)c1ccc(O)cc1 (stereo not given)		inconclusive: 0.0296 µM [cytotoxic, full curve, poor fit]
CCCCOCCOc1nc(-c2ccc(C(=O)O)c(F)c2)sc1C	inactive: 197%	
COc1ccc2c(c1)c(CC(=O)OCC(=O)O)c(C)n2C(=O)c1ccc(Cl)cc1		inconclusive: 0.0105 µM [rising, full curve, poor fit]
COc1cc(OC2CCN(C)CC2)ccc1Nc1ncc2c(n1)n(C1CCCC1)c(=O)n2C		inconclusive: 10.5 µM [cytotoxic, full curve, poor fit]
N#Cc1c(NC(=O)c2cccc3ccccc23)sc2c1CCCC2		inconclusive: 0.0083 µM [cytotoxic, full curve, poor fit]
CNC1CCC(N(Cc2cccc(-c3ccncc3)c2)C(=O)c2sc3ccccc3c2Cl)CC1 (stereo not given)		inconclusive: 29.6 µM [cytotoxic, partial curve, poor fit]
NC(=O)C1CCCc2c1[nH]c1ccc(Cl)cc21 (stereo not given)		inconclusive: 0.526 µM [cytotoxic, full curve, poor fit]
CNC(=O)c1ccc(N2C(=S)N(c3ccc(C#N)c(C(F)(F)F)c3)C(=O)C2(C)C)cc1F		inconclusive: 0.0017 µM [cytotoxic, full curve, poor fit]
CC1=C(C(=O)Nc2cc3cn[nH]c3cc2F)C(c2ccc(Cl)cc2F)N=C(c2ccnc(Cl)c2)N1 (stereo not given)		inconclusive: 20.9 µM [cytotoxic, partial curve, poor fit]
C[C@@H](Cc1cc2c(c(C(N)=O)c1)N(CCCO)CC2)NCCOc1ccccc1OCC(F)(F)F		inconclusive: 0.0042 µM [cytotoxic, full curve, poor fit]
CCCS(=O)(=O)Nc1ccc(F)c(C(=O)c2c[nH]c3ncc(Cl)cc23)c1F		inconclusive: 20.9 µM [cytotoxic, partial curve, poor fit]
CC=CC1=C(C(=O)O)N2C(=O)[C@H](NC(=O)[C@H](N)c3ccc(O)cc3)[C@@H]2SC1	inactive: 83.7%	

Compound	viability (% of DMSO)	Potency
CCc1c2c(nc3ccc(OC(=O)N4CCC(N5CCCCC5)CC4)cc13)-c1cc3c(c(=O)n1C2)COC(=O)[C@]3(O)CC		inconclusive: 37.2 µM [rising, partial curve, poor fit]
C[C@H]1O[C@H](O[C@H]2[C@H](O)[C@@H](O)[C@@H](O[C@H]3[C@H](O)[C@@H](O)C(O)O[C@H]3CO)O[C@H]2CO)[C@H](O)[C@@H](O)[C@H]1N[C@H]1C=C(CO)[C@@H](O)[C@H](O)[C@@H]1O (stereo not given in full)		inconclusive: 5.9 µM [cytotoxic, partial curve, poor fit]
Nc1ccc(S(=O)(=O)Nc2ccccn2)cc1	inactive: 90.2%	
CN(C)CCN1C(=O)c2cccc3cc(N)cc(c23)C1=O		inconclusive: 37.2 µM [cytotoxic, partial curve, poor fit]
CCCCN1CCC(CNC(=O)c2c3n(c4ccccc24)CCCO3)CC1		inconclusive: 1.05 µM [cytotoxic, full curve, poor fit]
C=C1CCC2[C@](C)(CO)C(O)CC[C@]2(C)C1CC=C1C(=O)OCC1O (stereo not given in full)		inconclusive: 38.2 µM [rising, partial curve, poor fit]
c1ccc(-c2oc3ncnc(NC[C@@H]4CCCO4)c3c2-c2ccccc2)cc1		inconclusive: 29.6 µM [rising, single point]
C[C@]12CC[C@@H]3c4ccc(O)cc4CC[C@H]3[C@H]1[C@@H](O)[C@@H](O)[C@H]2O		inconclusive: 0.209 µM [rising, full curve, poor fit]
COc1ccc2c(c1OC)C(=O)OC2[C@H]1c2c(cc3c(c2OC)OCO3)CCN1C (stereo not given in full)		active: 2.09 µM
CC(C)OC(=O)[C@H](C)N[P@](=O)(OC[C@H]1O[C@@H](n2ccc(=O)[nH]c2=O)[C@](C)(F)[C@H]1O)Oc1ccccc1		inconclusive: 37.2 µM [rising, partial curve, poor fit]
CCCCc1oc2ccc(NS(C)(=O)=O)cc2c1C(=O)c1ccc(OCCCN(CCCC)CCCC)cc1		inconclusive: 8.33 µM [cytotoxic, partial curve, poor fit]
NC(N)=NC(=O)c1nc(Cl)c(N)nc1N		inconclusive: 33.2 µM [cytotoxic, partial curve, poor fit]
O=S(=O)(NCCNCC=Cc1ccc(Br)cc1)c1cccc2cnccc12		active: 1.32 µM
CN[C@@H]1CN(c2ccc3c(=O)c(C(=O)O)cn(-c4nccs4)c3n2)C[C@@H]1OC		inconclusive: 5.75 µM [rising, partial curve, poor fit]
C=CCn1c(=O)c2cnc(Nc3ccc(N4CCN(C)CC4)cc3)nc2n1-c1cccc(C(C)(C)O)n1		inconclusive: 0.469 µM [cytotoxic, full curve, poor fit]
CCN(CC)CCNC(=O)c1ccc2nc(-c3ccccc3)c(-c3ccc(CN4CCC(n5c(=O)[nH]c6ccccc65)CC4)cc3)nc2c1		active: 1.05 µM
CN(C)CC(=O)N1CCC(c2ccc(NC(=O)c3ncc(C#N)[nH]3)c(C3=CCCCC3)c2)CC1		active: 2.35 µM
COc1ccc(-c2ccc3c(N4CCOC[C@H]4C)nc(N4CCOC[C@H]4C)nc3n2)cc1CO		inconclusive: 0.0264 µM [cytotoxic, full curve]
O=S(=O)(O)CCS		inconclusive: 11.8 µM [cytotoxic, partial curve, poor fit]
CC[C@]1(O)C[C@H]2CN(CCC3=c4ccccc4=N[C]3[C@@](C(=O)OC)(c3cc4c(cc3OC)N(C)[C@H]3[C@@](O)(C(N)=O)[C@H](O)[C@]5(CC)C=CCN6CC[C@]43[C@@H]65)C2)C1		inconclusive: 5.9 µM [cytotoxic, partial curve, poor fit]

For convenience, some entries already given:
Compound	viability (% of DMSO)	Potency
COc1ccc2c(c1OC)C(=O)OC2[C@H]1c2c(cc3c(c2OC)OCO3)CCN1C (stereo not given in full)		active: 2.09 µM
CC(C)OC(=O)[C@H](C)N[P@](=O)(OC[C@H]1O[C@@H](n2ccc(=O)[nH]c2=O)[C@](C)(F)[C@H]1O)Oc1ccccc1		inconclusive: 37.2 µM [rising, partial curve, poor fit]
